Among the data in article PMC9723933 (The Journal of Biological Chemistry, 2022) are IC50 values, retold here.

Chains of the proteins cited; added tags and fusions are not shown.
UniProt P33302, whole entry V1372A: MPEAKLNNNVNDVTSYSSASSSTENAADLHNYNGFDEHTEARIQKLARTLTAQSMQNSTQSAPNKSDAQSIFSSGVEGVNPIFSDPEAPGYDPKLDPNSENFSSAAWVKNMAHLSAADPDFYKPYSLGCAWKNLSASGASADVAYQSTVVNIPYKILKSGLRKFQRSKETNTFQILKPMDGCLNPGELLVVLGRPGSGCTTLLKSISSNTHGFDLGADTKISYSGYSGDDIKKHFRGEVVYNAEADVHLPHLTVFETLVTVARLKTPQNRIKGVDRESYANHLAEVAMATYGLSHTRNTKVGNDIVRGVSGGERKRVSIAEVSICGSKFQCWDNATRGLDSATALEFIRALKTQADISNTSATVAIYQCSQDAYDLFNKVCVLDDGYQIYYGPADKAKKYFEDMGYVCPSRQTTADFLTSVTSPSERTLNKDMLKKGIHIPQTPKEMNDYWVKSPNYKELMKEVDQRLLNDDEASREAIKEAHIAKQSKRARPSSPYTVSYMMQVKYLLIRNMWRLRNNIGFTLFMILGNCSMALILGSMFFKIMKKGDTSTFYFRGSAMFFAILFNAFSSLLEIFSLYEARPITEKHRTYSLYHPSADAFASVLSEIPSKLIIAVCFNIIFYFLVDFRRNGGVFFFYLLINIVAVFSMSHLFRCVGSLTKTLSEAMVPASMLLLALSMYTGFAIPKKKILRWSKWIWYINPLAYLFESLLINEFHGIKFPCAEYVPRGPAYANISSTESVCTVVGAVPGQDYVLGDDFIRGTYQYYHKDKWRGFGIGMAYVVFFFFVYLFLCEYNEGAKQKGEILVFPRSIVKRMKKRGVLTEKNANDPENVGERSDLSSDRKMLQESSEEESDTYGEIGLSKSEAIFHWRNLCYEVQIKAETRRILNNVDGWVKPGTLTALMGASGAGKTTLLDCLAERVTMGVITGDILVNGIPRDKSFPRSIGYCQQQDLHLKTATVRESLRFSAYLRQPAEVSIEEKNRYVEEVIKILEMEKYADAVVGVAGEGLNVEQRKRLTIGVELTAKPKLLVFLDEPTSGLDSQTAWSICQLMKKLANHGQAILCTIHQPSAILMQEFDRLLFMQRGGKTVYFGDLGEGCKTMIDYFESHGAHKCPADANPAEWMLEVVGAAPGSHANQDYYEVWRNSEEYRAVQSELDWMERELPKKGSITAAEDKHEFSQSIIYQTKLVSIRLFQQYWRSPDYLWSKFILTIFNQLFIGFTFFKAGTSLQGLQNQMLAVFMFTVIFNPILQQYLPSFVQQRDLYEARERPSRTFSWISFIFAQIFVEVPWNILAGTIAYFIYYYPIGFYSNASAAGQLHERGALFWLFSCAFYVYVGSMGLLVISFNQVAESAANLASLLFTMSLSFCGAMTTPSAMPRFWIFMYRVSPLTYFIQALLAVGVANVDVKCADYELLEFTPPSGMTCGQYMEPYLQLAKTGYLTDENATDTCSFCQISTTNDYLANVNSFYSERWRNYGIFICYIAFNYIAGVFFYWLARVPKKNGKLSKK
UniProt P33302, whole entry I685A: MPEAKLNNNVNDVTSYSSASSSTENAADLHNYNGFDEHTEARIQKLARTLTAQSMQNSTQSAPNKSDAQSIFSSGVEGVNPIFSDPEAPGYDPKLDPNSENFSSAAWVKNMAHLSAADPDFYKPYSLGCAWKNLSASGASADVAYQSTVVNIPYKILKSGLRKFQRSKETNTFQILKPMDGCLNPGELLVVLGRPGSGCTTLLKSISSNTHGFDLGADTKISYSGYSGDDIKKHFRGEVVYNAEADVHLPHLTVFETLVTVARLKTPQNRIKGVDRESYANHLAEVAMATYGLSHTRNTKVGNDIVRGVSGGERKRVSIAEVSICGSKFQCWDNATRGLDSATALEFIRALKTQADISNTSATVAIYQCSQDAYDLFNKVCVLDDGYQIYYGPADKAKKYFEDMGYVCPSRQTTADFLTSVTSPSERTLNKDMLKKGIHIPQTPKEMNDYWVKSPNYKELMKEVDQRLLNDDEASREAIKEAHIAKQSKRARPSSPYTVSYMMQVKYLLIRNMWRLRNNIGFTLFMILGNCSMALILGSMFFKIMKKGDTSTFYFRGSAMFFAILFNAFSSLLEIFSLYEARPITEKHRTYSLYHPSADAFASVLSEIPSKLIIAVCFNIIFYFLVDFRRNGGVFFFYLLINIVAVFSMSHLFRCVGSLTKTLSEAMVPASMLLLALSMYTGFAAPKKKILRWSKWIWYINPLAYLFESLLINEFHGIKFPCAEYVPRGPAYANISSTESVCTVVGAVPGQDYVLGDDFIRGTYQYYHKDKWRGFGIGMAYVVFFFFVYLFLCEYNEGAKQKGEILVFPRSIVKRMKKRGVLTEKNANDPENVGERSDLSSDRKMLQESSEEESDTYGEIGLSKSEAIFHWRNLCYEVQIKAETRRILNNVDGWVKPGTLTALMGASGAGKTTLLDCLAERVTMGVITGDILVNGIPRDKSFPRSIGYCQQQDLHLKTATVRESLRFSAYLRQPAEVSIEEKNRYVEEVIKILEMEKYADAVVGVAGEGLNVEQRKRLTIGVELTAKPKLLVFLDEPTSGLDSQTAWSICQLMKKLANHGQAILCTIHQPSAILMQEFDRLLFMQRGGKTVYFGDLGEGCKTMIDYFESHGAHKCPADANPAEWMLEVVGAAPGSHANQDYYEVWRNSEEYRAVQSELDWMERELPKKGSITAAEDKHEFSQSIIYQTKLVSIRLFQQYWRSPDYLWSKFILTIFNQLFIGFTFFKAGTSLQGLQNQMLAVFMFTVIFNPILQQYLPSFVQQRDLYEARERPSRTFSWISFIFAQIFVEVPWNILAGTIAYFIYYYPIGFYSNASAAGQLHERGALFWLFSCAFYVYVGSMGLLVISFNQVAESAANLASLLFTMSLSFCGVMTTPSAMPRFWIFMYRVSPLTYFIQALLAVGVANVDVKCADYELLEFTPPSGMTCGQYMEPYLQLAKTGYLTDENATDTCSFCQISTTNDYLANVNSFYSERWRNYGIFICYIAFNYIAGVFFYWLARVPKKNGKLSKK

Each structure is given as a SMILES string.

In general, IC50 refers to the midpoint of a concentration-inhibition curve. A low value points to greater potency.

One test has as its target Pdr5 WT (Saccharomyces cerevisiae, UniProt P33302). In words: Inhibition of Pdr5 ATPase activity in purified PM vesicles. In kind it is biochemical, yeast.
A further test concerns the target Pdr5 V1372A (Saccharomyces cerevisiae, UniProt P33302, V1372A). In words: biochemical. Details: species or system yeast.
For another test, the target named is Pdr5 I685A (Saccharomyces cerevisiae, UniProt P33302, I685A). Kind of test: biochemical. Details: species or system yeast.

For the compound `Clc1ccccc1C(c1ccccc1)(c1ccccc1)n1ccnc1` [clotrimazole], the IC50 at Pdr5 WT stood at 1.17 µM; at Pdr5 V1372A it was 1.96 µM; against Pdr5 I685A, 1.78 µM.
